Results on 42 sequences are retold here after publication PMC7819943, “Rice protein-binding microarrays: a tool to detect cis-acting elements near promoter regions in rice”.

By UniProt entry, the sequences of proteins in these tests, tags left out.
UniProt Q0JBA9, entry or part of it: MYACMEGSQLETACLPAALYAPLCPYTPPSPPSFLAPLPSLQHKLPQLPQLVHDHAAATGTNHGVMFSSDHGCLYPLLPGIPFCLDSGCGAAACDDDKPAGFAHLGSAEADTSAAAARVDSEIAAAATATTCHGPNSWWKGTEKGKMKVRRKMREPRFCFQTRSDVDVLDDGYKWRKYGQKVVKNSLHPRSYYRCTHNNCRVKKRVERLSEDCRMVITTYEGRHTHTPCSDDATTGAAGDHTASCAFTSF

Some of the results follow.

The target of this assay is OsWRKY34 (Oryza sativa, UniProt Q0JBA9 1-250). In words: protein-binding microarray (RPBM); PBS, 2% BSA, 51.3 ng/ul salmon testes DNA, 50 uM zinc acetate, 200 nM TF, 25 C, 1 h; high values mean tight binding. Particulars: protein: recombinant; tags: N-terminal polyhistidine and DsRed monomer fusion (pET32a); label: CyDye5-dUTP incorporated in the synthesized complementary strand; 3' TTTTT single-stranded linker to array surface; dsDNA, one strand shown. The procedure, abridged: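 The binding signal is fluorescence intensity per array feature (arbitrary units). Readings came from an Axon 4000B scanner after a washed, 2% BSA-blocked, double-stranded custom Agilent array had been incubated for 1 h at 25 °C with 200 nM protein and 50 µM zinc acetate. The protein was a Ni–NTA-purified transcription factor fused N-terminally to polyhistidine and DsRed, expressed in E. coli BL21-CodonPlus.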
Regarding “GGGGCTCGTGATGGCGGTGTGGGTGCAATGCTTCTTTGGCCGGAGTCACCTAGTGCAG”, the binding signal is 9940 fluorescence intensity (a.u.). Take “TTTTAACTGTCATACTCACACATGTTCGATGAACTTTCGACGGAGTCACCTAGTGCAG”: the binding signal was 8480 fluorescence intensity (a.u.). For the sequence “ACCTTTTATGGTGGGGTAGGAGTAGGTGACGGTGGAGATTCGGAGTCACCTAGTGCAG”, the binding signal was 19000 fluorescence intensity (a.u.). Under “TTCTTATGGTTTATATGGACTATTCTTGTCCTTAAGGTTTCGGAGTCACCTAGTGCAG” stands 8750 fluorescence intensity (a.u.); under “AAGCGCATATTGGGCCACTCTTTTTAACCATTGTTGCAACCGGAGTCACCTAGTGCAG”, 8580 fluorescence intensity (a.u.). As for “TCCCTTCAACCCCGTATGGCAAGTCCACCACTCCTTTCTTCGGAGTCACCTAGTGCAG”, the figure is 8380 fluorescence intensity (a.u.). Under “TGGTTTTGTATAGTTAATGGACCCCGTATATCTGGTTTTGCGGAGTCACCTAGTGCAG” stands 9610 fluorescence intensity (a.u.); under “GCCTCGCCTCATCTCCGTCACTTTCCATTTCGCCGCAGCGCGGAGTCACCTAGTGCAG”, 9430 fluorescence intensity (a.u.); under “GCTCTGCCTTTTTCTTTATTTTTTCCTCACACGGTGCTTTCGGAGTCACCTAGTGCAG”, 10400 fluorescence intensity (a.u.). “ATACCCGACACCTCTGACGGCTCCAAGCTTGCAAGTCAACCGGAGTCACCTAGTGCAG”: the binding signal is 8050 fluorescence intensity (a.u.). As for “AACTTTTAAATTTTGACGTGAAGTAACCACACCCTTCATCCGGAGTCACCTAGTGCAG”, the figure is 8380 fluorescence intensity (a.u.); as for “GCCATCCCCGATCGATCCCCACCCGCAGCGGCGGCGAGGCCGGAGTCACCTAGTGCAG”, 8140 fluorescence intensity (a.u.). In the case of “TATTGCCGTAAGCTCTACCTCTGTTCTTTCTTTCACTGTCCGGAGTCACCTAGTGCAG”, the binding signal was 12500 fluorescence intensity (a.u.). On to “TTGTTTACTACTCGACATCAGCGTCTCTCTACACATATATCGGAGTCACCTAGTGCAG”, for which the binding signal is 8040 fluorescence intensity (a.u.). Take “GATTTGTGTTCCCAGCAAGAAGCCCTTAGTCATTCTAGTCCGGAGTCACCTAGTGCAG”: the binding signal was 9180 fluorescence intensity (a.u.). As for “CGCCGTCGCCGGGGATGGCCAGCCGCTTCCATTTGCTCTTCGGAGTCACCTAGTGCAG”, the figure is 9900 fluorescence intensity (a.u.).

“GCGGTGGTTGCGGATTTGTAGCTTAGAGCGCGGGGCCATGCGGAGTCACCTAGTGCAG”: the binding signal is 9620 fluorescence intensity (a.u.). For the sequence “CTCCCACTTCGCCACCCTCACAAGTCACAACCTTCCCTCACGGAGTCACCTAGTGCAG”, the binding signal was 9160 fluorescence intensity (a.u.).

For the sequence “TTTTACGGTTTAGGGTCATGGATTAGATTCGGGTCACTTTCGGAGTCACCTAGTGCAG”, the binding signal was 9860 fluorescence intensity (a.u.). On to “ATTTTGAGCCAATTTTGATTTCCTTTACCTTTTCTGTACTCGGAGTCACCTAGTGCAG”, for which the binding signal was 8810 fluorescence intensity (a.u.). As for “TGGTTCTGTTTGCTTCCTATATTAATACCTTTTCAATGTACGGAGTCACCTAGTGCAG”, the figure is 9590 fluorescence intensity (a.u.); as for “CACCATCGTCGACCTTGATCTTGCTCCGTTCTTTGGAGCTCGGAGTCACCTAGTGCAG”, 9440 fluorescence intensity (a.u.). For the sequence “ATCCCCACTCCCACTCCGGCACTTCACCAGTTCACCACCGCGGAGTCACCTAGTGCAG”, the binding signal is 8740 fluorescence intensity (a.u.). “GACCTTTACTTTTTCATCCTACCTAAATGCATATTCCAATCGGAGTCACCTAGTGCAG”: the binding signal is 9320 fluorescence intensity (a.u.).

Turning to “GTCGCCAACCGTTTTCTCCTCCTCGCTCTCTCCATGTGATCGGAGTCACCTAGTGCAG”, the binding signal is 9520 fluorescence intensity (a.u.).

On to “GATCCCACATTCCTACTGTTCTTTTTGTCACGACCAAAATCGGAGTCACCTAGTGCAG”, for which the binding signal is 12700 fluorescence intensity (a.u.).

“GCTGTTGCACAAGTAGCATCACCAACCTCTCCCTGTCTATCGGAGTCACCTAGTGCAG”: the binding signal was 8110 fluorescence intensity (a.u.).

As to “CATTCATCGTGCGTAGCAAATACTCCGTCCGTACATCTAACGGAGTCACCTAGTGCAG”, the binding signal is 8690 fluorescence intensity (a.u.). For “TGCCTCCTTTTGTTTTGCGTCTCCTTATCAGAGTGGATTGCGGAGTCACCTAGTGCAG”, the binding signal is 8350 fluorescence intensity (a.u.). As to “AGGTCTTTTTCACGTCGCAACCATGGCTTCAAATTTTGCTCGGAGTCACCTAGTGCAG”, the binding signal was 11900 fluorescence intensity (a.u.).

“TTCGTTTTACATCCGAGATATTTACGATTTTGGCCGATCGCGGAGTCACCTAGTGCAG”: the binding signal was 8700 fluorescence intensity (a.u.). “AGCACTCTTTTCTTGTCTTTTTTATTATGAACCGGTGGAGCGGAGTCACCTAGTGCAG”: the binding signal is 8250 fluorescence intensity (a.u.).

Regarding “TTAGTCTATATTTAATACTTCAAATGTTTGTCCATATACTCGGAGTCACCTAGTGCAG”, the binding signal is 8070 fluorescence intensity (a.u.).

Regarding “CTCTCCCGGTCGCGCCGCCATCTCCTCTCCCAATCGCGCGCGGAGTCACCTAGTGCAG”, the binding signal was 8860 fluorescence intensity (a.u.).

Take “TTTAAACTGACACATGGGTCCCACCTTTTATTTTGCTTCCCGGAGTCACCTAGTGCAG”: the binding signal is 10700 fluorescence intensity (a.u.). Under “ACCACGGTCCACACTGCCCTGCCCTGCCCGGCTGCCCCTGCGGAGTCACCTAGTGCAG” stands 11000 fluorescence intensity (a.u.); under “TGGTTCAGCTTTGGTATCATCATGTCGTGTGCGCGCAGCGCGGAGTCACCTAGTGCAG”, 8650 fluorescence intensity (a.u.); under “GACACGGCCTCCTCAGCTCCAGTTTCTTTATATCCCATGGCGGAGTCACCTAGTGCAG”, 8580 fluorescence intensity (a.u.). As to “ACATACCTCGTGCGGCCAGTCGCCTGTTACAAACTCCATTCGGAGTCACCTAGTGCAG”, the binding signal is 8270 fluorescence intensity (a.u.). Regarding “TATCAATTACATCTTTGTTTCCTTTTCAGTTCAATTGCATCGGAGTCACCTAGTGCAG”, the binding signal is 8860 fluorescence intensity (a.u.).

For the sequence “CACAGACACATTTGGTTAATTACATACCTTGTACACTTCACGGAGTCACCTAGTGCAG”, the binding signal was 8780 fluorescence intensity (a.u.).

On to “TTTTTCCTATTCCTCTGTTTTTTCATTCCTACGATTCAAACGGAGTCACCTAGTGCAG”, for which the binding signal was 11100 fluorescence intensity (a.u.).
